This is an account of results in US20040152179A1 (US Dept. of Health and Human Services, published 2004).

By UniProt entry, the sequences of proteins in these tests, tags left out. Residues count along the entry.
UniProt Q09118, residues 63-148: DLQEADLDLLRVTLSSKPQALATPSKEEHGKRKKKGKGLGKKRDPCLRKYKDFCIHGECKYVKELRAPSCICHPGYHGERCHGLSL
UniProt P00588, residues 33-567: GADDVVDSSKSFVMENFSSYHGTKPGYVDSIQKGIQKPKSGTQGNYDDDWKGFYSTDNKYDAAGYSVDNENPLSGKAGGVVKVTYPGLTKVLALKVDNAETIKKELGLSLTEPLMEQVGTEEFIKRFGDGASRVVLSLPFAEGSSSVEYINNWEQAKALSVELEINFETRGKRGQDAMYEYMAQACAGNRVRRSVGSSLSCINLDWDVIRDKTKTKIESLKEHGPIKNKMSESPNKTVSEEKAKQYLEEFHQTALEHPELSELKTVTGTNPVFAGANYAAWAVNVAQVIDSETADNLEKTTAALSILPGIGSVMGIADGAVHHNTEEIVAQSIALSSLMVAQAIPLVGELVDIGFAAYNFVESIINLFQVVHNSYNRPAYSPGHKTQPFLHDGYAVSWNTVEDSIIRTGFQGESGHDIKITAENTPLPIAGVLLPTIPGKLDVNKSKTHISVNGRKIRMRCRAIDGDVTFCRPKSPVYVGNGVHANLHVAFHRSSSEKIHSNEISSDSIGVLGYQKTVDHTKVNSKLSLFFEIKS

These are yes or no findings as the source states them, for the method shown. Some binding calls cover weakened binding; strength is not graded here.

The target in experiment [1] is diphtheria toxin receptor on Cos-7 cells (monkey kidney) (monkey) (UniProt Q09118). The experiment is described as follows: cold competitor against I^125-labelled DT on Cos-7 cells.
Experiment [2] shares this target. The experiment can be described thus: cold competitor against I^125-labelled DT, legend of FIG. 2.

As for “native diphtheria toxin (from UniProt P00588 33-567) (ligand)”, the binding result in experiment [1] and in experiment [2] was “binds” each time.
